Data as given in PubChem BioAssay AID652243 (Drosophila RNAi Screening Center, 2013)

Purpose: 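Fly genes required for human androgen receptor driven transcription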 (primary screen)
Cells: Drosophila S2R+ cells
Reagents: long dsRNA against Drosophila genes
Timing: 72 h (48 h, then 24 h hormone)
Challenge: synthetic androgen R1881 at 10 nM for 24 h
Measured: 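Firefly light from an androgen-responsive reporter and Renilla control light per well, raw and unnormalised, for each of two replicates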
Direction: firefly reporter light: higher = more light from androgen-responsive reporter; Renilla control light: higher = more constitutive control signal (cell number, transfection)
Call rule: 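Across duplicate plates, a knock-down whose log firefly/Renilla ratio shifted a set fold down or up from the GFP/LacZ control mean was a hit; the downward cut appears as both 1.5 and 3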
Meaning of the calls: active = hit: reporter lowered or raised; inactive = no hit
In all, the deposit lists about 24,000 reagents; below is a random part of those that have a named target and a result. In the full data, 246 (1%) got an active call. 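Plates not normalised; calls are printed but the firefly/Renilla ratio behind them is not deposited; fold cut for lowering reported inconsistently.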 Raw values vary from plate to plate and are shown uncorrected. Unmarked entries are inactive. The record does not give: the amount of reagent.

CG31145 [SID104193998] | firefly reporter light, replicate 1 = 1.50e5; firefly reporter light, replicate 2 = 1.58e5; Renilla control light, replicate 1 = 2.95e6; Renilla control light, replicate 2 = 3.12e6
CG31145 [SID104194463] | firefly reporter light, replicate 1 = 1.26e5; firefly reporter light, replicate 2 = 1.83e5; Renilla control light, replicate 1 = 2.28e6; Renilla control light, replicate 2 = 2.28e6
CG31145 [SID104205302] | firefly reporter light, replicate 1 = 2.85e5; firefly reporter light, replicate 2 = 2.47e5; Renilla control light, replicate 1 = 6.76e5; Renilla control light, replicate 2 = 4.36e5
Mov10 [SID104186804] | firefly reporter light, replicate 1 = 1.09e6; firefly reporter light, replicate 2 = 1.00e6; Renilla control light, replicate 1 = 1.76e6; Renilla control light, replicate 2 = 1.72e6
DIP1 [SID104200610] | firefly reporter light, replicate 1 = 4.87e5; firefly reporter light, replicate 2 = 6.17e5; Renilla control light, replicate 1 = 1.27e6; Renilla control light, replicate 2 = 1.39e6
DIP1 [SID104205898] | firefly reporter light, replicate 1 = 2.32e5; firefly reporter light, replicate 2 = 2.00e5; Renilla control light, replicate 1 = 6.27e5; Renilla control light, replicate 2 = 5.87e5
scf [SID104188527] | firefly reporter light, replicate 1 = 71100; firefly reporter light, replicate 2 = 89712; Renilla control light, replicate 1 = 1.16e6; Renilla control light, replicate 2 = 9.91e5
Spn43Aa [SID104185909] | firefly reporter light, replicate 1 = 6.71e5; firefly reporter light, replicate 2 = 4.89e5; Renilla control light, replicate 1 = 1.01e6; Renilla control light, replicate 2 = 9.45e5

Continued; the last 2 above are carried over.
scf [SID104188527] | firefly reporter light, replicate 1 = 71100; firefly reporter light, replicate 2 = 89712; Renilla control light, replicate 1 = 1.16e6; Renilla control light, replicate 2 = 9.91e5
Spn43Aa [SID104185909] | firefly reporter light, replicate 1 = 6.71e5; firefly reporter light, replicate 2 = 4.89e5; Renilla control light, replicate 1 = 1.01e6; Renilla control light, replicate 2 = 9.45e5
CG6638 [SID104190472] | firefly reporter light, replicate 1 = 1.51e5; firefly reporter light, replicate 2 = 1.35e5; Renilla control light, replicate 1 = 1.49e6; Renilla control light, replicate 2 = 1.31e6
CG6638 [SID104203096] | firefly reporter light, replicate 1 = 8.69e5; firefly reporter light, replicate 2 = 9.47e5; Renilla control light, replicate 1 = 1.30e6; Renilla control light, replicate 2 = 1.06e6
CG14963 [SID104188214] | firefly reporter light, replicate 1 = 70930; firefly reporter light, replicate 2 = 53022; Renilla control light, replicate 1 = 7.33e5; Renilla control light, replicate 2 = 9.28e5
Msp300 [SID104180648] | firefly reporter light, replicate 1 = 3.93e5; firefly reporter light, replicate 2 = 1.19e5; Renilla control light, replicate 1 = 9.54e5; Renilla control light, replicate 2 = 6.24e5
Msp300 [SID104180649] | firefly reporter light, replicate 1 = 1.02e5; firefly reporter light, replicate 2 = 64343; Renilla control light, replicate 1 = 2.97e5; Renilla control light, replicate 2 = 3.17e5
Msp300 [SID104180650] | firefly reporter light, replicate 1 = 1.42e5; firefly reporter light, replicate 2 = 1.76e5; Renilla control light, replicate 1 = 6.03e5; Renilla control light, replicate 2 = 5.24e5
Msp300 [SID104182152] | firefly reporter light, replicate 1 = 50877; firefly reporter light, replicate 2 = 45774; Renilla control light, replicate 1 = 7.42e5; Renilla control light, replicate 2 = 7.77e5
Msp300 [SID104183161] | firefly reporter light, replicate 1 = 3.98e5; firefly reporter light, replicate 2 = 7.56e5; Renilla control light, replicate 1 = 1.46e6; Renilla control light, replicate 2 = 1.00e6
Msp300 [SID104183162] | firefly reporter light, replicate 1 = 2.75e5; firefly reporter light, replicate 2 = 1.41e5; Renilla control light, replicate 1 = 1.81e6; Renilla control light, replicate 2 = 1.22e6
